Experimental data taken from publication PMC4381070.
These are yes or no findings as the source states them, for the method shown. In cells and extracts the contact can be indirect. A result given as binding can be weak or reduced; the word gives no strength.

Sequences of proteins named here, by UniProt entry; tags and fusion partners are left off. A change or cut given only in a name is not applied to a line headed by its entry.
UniProt Q9BQ69: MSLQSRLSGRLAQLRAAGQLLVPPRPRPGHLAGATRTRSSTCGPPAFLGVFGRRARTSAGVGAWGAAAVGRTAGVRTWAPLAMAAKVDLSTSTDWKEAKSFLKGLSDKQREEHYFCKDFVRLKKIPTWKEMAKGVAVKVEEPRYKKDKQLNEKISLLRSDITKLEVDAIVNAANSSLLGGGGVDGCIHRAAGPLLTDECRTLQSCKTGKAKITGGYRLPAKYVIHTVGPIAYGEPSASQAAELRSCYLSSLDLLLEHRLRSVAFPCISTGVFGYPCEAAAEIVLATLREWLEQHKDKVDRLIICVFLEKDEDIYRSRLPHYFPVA
UniProt P09874: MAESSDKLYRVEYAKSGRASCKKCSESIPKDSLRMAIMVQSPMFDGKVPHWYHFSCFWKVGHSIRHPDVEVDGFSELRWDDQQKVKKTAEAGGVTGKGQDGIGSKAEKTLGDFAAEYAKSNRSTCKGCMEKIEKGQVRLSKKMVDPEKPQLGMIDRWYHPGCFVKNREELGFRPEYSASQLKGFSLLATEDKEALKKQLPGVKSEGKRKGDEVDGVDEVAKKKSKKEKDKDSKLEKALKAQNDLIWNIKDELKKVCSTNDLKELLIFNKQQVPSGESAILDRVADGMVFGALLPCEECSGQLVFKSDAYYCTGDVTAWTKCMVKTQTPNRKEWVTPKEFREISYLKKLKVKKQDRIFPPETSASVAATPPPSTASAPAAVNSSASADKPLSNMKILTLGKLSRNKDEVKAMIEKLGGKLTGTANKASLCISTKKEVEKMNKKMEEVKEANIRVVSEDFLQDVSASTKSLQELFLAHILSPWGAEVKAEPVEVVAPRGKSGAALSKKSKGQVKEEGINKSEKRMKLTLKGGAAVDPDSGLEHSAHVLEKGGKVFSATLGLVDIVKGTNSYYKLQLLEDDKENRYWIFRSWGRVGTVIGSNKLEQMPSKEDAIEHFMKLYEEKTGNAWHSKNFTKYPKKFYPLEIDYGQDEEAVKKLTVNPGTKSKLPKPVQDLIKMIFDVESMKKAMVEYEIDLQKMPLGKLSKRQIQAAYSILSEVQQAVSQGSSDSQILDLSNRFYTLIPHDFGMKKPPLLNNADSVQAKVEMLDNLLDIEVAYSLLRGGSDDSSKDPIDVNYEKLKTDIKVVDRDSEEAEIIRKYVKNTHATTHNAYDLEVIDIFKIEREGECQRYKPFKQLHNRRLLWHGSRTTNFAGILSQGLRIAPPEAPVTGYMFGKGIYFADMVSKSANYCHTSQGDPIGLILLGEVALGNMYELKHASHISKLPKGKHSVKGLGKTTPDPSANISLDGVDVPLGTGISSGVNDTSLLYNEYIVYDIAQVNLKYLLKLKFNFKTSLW
UniProt Q9Y6K9: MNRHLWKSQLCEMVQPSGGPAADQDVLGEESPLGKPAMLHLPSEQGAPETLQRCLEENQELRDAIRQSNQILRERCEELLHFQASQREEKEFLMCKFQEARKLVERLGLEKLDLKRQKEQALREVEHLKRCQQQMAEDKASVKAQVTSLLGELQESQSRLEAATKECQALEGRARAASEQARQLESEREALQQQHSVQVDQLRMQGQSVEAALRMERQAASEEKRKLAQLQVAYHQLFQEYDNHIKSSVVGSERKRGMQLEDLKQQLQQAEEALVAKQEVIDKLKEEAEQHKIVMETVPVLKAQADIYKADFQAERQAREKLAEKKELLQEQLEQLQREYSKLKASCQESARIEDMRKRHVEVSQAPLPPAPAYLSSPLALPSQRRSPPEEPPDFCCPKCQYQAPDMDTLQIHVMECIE

Molecular target: FLAG-LRP16 (G270A-V271A-F271A, GVF-AAA) (UniProt Q9BQ69)
Assay: co-IP; HeLa cells transfected with a FLAG-tagged construct (the target), treated with VP16 for 30 min; whole-cell extracts, IP with anti-FLAG antibody, endogenous partner detected by immunoblot

## PARP1 (endogenous) (from UniProt P09874 1-1014)
  binding: binds

## IKKγ (endogenous) (from UniProt Q9Y6K9 1-419)
  binding: binds
